Test results: patent US20200368361A1
Where a chain is given by its changes, count along the chain named. Names and notes keep the numbering of the source. These are yes or no findings as the source states them, for the method shown. Some entries that bind do so weakly or less than the wild type. For part of these data: Tags and fused reporters may be left off the sequences shown.

T1: mouse MSR1 extracellular domain expressed with a N-terminal nonahistidine tag (mouse) (UniProt P30204)
T1 sequence: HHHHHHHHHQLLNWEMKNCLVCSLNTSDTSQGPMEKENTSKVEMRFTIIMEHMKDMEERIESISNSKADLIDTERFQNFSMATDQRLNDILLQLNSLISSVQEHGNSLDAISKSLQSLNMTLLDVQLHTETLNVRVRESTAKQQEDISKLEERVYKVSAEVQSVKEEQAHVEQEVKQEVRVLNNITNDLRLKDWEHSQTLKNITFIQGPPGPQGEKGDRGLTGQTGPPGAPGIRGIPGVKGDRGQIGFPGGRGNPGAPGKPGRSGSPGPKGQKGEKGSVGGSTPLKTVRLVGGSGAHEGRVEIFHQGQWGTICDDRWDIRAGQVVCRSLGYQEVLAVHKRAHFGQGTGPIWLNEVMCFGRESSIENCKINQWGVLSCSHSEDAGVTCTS

B1: H1H27734P-N297Q (antibody, human IgG1, V domains shown)
VH: EVQLVESRGGLVQPGGSLRLSCAASGFTFSSYAMSWVRQAPGKGLEWVSAISGSGGSTFYADSVKGRFTISRDNSKNTVYLQMNSLRAEDTAVYYCAKALVLRFLEWLGDYWGQGTLVTVSS
VL: DIQMTQSPSTLSASVGDRVTITCRASQSISSWLAWFQQKPGKAPKLLIYKASSLESGVPSRFSGSGSGTEFTLTISSLQPDDFATYYCQQYKSYWTFGQGTKVEIKR
B2: H1H27739P-N297Q (antibody, human IgG1, V domains shown)
VH: EVQLVESGGGLVQPGGSLRLSCTASGFTFSSYAMSWVRQAPGKGLEWVSAISGTGSSTYFTDSVKGRFAISRDNSKNTLYLQMNSLRAEDTAVYYCAKDGEWLSTVTLFDYWGQGTLVTVSS
VL: EIVMTQSPATLSVSPGERATLSCRASQSVSSNLAWYQQKPGQAPRLLIYGASTRATGIPARFSGSGSGTDFTLTISSLQSEDFALYYCQQYFIWPPHPTFGPGTKVDIKR
B3: H1H27729P-N297Q (antibody, human IgG1, V domains shown)
VH: QVQLVESGGGLVKPGGSLRLSCAASGFIFSDYYMSWIRQAPGKGLEWVSYISSSGTTIYGDSVKGRFTMSRDNAKNSLYLQMNSLRAEDTAVYYCARNYALFDYWGQGTLVTVSS
VL: DIQMTQSPSSLSASVGDRVTITCQASQDISKYLNWYQQKPGKAPKLLIYYTSNLETGVPSRFSGSGSGTDFTFTISSLQPEDIATYYCHQSDYLPFTFGPGTKVDIKR
B4: H1H27747P-N297Q (antibody, human IgG1, V domains shown)
VH: QVQLVESGGAVVQPGRSLRLSCAASGFTFSYYGMHWVRQAPGKGLEWVAVISYDGSKKYYADSVKGRFTISRDNSKNTLYLQMNSLRAEDTAVYYCAKDLTVDFYYGMDVWGQGTTVTVSS
VL: DIQMTQSPSSVSASVGDRVTITCRASQGISSWLAWYQQKPGKAPKLLIYATSSLQSGAPSRFSGSGSGTDFTLTISSLQPEDFATYFCQQANSFPYTFGQGTKLEIKR
B5: H1H27754P-N297Q (antibody, human IgG1, V domains shown)
VH: EVQLVESGGGLVQPGGSLRLSCAASGFTFRTYAMTWVRQAPGKGLDWVSAITGDGGNTYYADSVKGRFTISRDNSKNTLYLQMNSLRAEDTAIYYCAKDQRFSFALYYFDYWGQGTLVTVSS
VL: B4 VL with K42N, T51A, S52F, A58V, F87Y, S93N, Y96W, L104V
B6: H1H21234N-N297Q (antibody, human IgG1, V domains shown)
VH: QVQLQESGPGLVKPSETLSLTCTVTGGSISRNYWSWIRQPPGKGLEWIGYIYYSGSIDYNPSLKSRVTISVDTSKNQFSLKLSSMTAADTAVYYCARDRWNWKYGMDVWGQGTTVIVSS
VL: EIVLTQSPGTLSLSPGERATLSCRASQTVRNNYLAWYHQKPGQAPRLLIYGASSRATGIPDRFSGSGSGTDFTLTISRLEPEDFTVYYCHQYGNSPWTFGQGTKMEIKR
B7: H2aM25695N (antibody, mouse IgG2a, V domains shown)
VH: B6 VH with D58N, T73M, S83N, M85V
VL: B6 VL with N32S, T85A, H90Q, N94S, P96Y
B8: H1H21234N (antibody, human IgG1, V domains shown)
VH: B6 VH
VL: B6 VL

The binders below were run against full length monkey MSR1 on HEK293.mfMSR1 cells (Macaca fascicularis) (assay: ECL cell binding (Meso Scale), 11 nM antibody, ratio to isotype control).

binding, binds:
B1
B2
B3
B4
B5
B6
B7
B8

These binders were tested against full length monkey MSR1 on HEK293.mfMSR1 cells (Macaca fascicularis) (assay: ECL cell binding, HEK293.mfMSR1, 11 nM; heading of the table's group).

binding, binds:
B1
B2
B3
B4
B5
B6
B7
B8

Each binder was assayed against T1, mouse MSR1 extracellular domain expressed with a N-terminal nonahistidine tag (mouse) (assay: BLI (Octet HTX), antibody captured, 25 C).

binding, binds:
B6
B8
